# Reference: the supplement of paper PMC4604168 (melanoma cell lines)
# Some of the results follow. Repeats are few or missing, and single values can be far off.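 The apoptosis fraction was the count of cleaved-PARP antibody-stained nuclei relative to all DNA-stained nuclei, imaged in 1,536-well plates. Screening doses were set so most cells survived, and baseline and induced cleaved-PARP levels vary greatly across cell lines.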
# What was measured:
# Assay in all cases: cleaved PARP positive nuclei fraction relative to DMSO control; melanoma cells; higher = more apoptosis
# Details in all cases: library dose: low library concentration; 72 h
# [1] = system: COLO792
# [2] = system: COLO800
# [3] = system: COLO829
# [4] = system: G361
# [5] = system: IPC-298
# [6] = system: IST-MEL1
# [7] = system: LB2518-MEL
# [8] = system: LOXIMVI
# [9] = system: MEL-HO
# [10] = system: MZ2-MEL
# [11] = system: MeWo
# [12] = system: RPMI7951
# [13] = system: RVH-421
# [14] = system: SkMel28
# [15] = system: SkMel2
# [16] = system: SkMel30
# [17] = system: SkMel5
# [18] = system: UACC257
# [19] = system: UACC62
Structure (SMILES),cleaved PARP positive nuclei fraction [1] [%],cleaved PARP positive nuclei fraction [2] [%],cleaved PARP positive nuclei fraction [3] [%],cleaved PARP positive nuclei fraction [4] [%],cleaved PARP positive nuclei fraction [5] [%],cleaved PARP positive nuclei fraction [6] [%],cleaved PARP positive nuclei fraction [7] [%],cleaved PARP positive nuclei fraction [8] [%],cleaved PARP positive nuclei fraction [9] [%],cleaved PARP positive nuclei fraction [10] [%],cleaved PARP positive nuclei fraction [11] [%],cleaved PARP positive nuclei fraction [12] [%],cleaved PARP positive nuclei fraction [13] [%],cleaved PARP positive nuclei fraction [14] [%],cleaved PARP positive nuclei fraction [15] [%],cleaved PARP positive nuclei fraction [16] [%],cleaved PARP positive nuclei fraction [17] [%],cleaved PARP positive nuclei fraction [18] [%],cleaved PARP positive nuclei fraction [19] [%]
"C#Cc1cccc(Nc2ncnc3cc(OCCOC)c(OCCOC)cc23)c1 [erlotinib] + Cc1ccc(NC(=O)c2cccc(N(C)C)c2)cc1NC(=O)c1ccc(O)cc1 [ZM336372] (first compound 0.8 µM, partner dose 2 µM)",114,85.1,167,52.5,237,165,60.3,47.5,91.1,52.6,92.4,152,148,37.8,69.9,77.3,107,61.8,56
"C[C@]1(c2nc3c(C(N)=O)cccc3[nH]2)CCCN1 [Veliparib] + CC(C)(C)c1cnc(CSc2cnc(NC(=O)C3CCNCC3)s2)o1 [SNS-032] (first compound 1.4 µM, partner dose 0.01 µM)",128,123,178,138,91.3,101,105,88.8,140,184,106,86.6,104,72.1,94.2,780,187,254,270
"Cc1nc(Nc2ncc(C(=O)Nc3c(C)cccc3Cl)s2)cc(N2CCN(CCO)CC2)n1 [dasatanib] + CC1(C)NC(=O)N(c2ccc([N+](=O)[O-])c(C(F)(F)F)c2)C1=O [nilutamide] (first compound 0.004 µM, partner dose 1 µM)",141,39.2,139,45.3,47,91.1,96.5,76,94.1,139,197,180,93.3,75.3,56.8,218,101,104,50.1
"C[C@]1(c2nc3c(C(N)=O)cccc3[nH]2)CCCN1 [Veliparib] + C[C@@H]1CCN(C(=O)CC#N)C[C@@H]1N(C)c1ncnc2[nH]ccc12 [CP690550] (first compound 1.4 µM, partner dose 1 µM)",64.9,159,165,110,174,31.5,108,127,81.3,108,87.4,134,134,45.4,65.2,72.7,60.6,189,568
